{"source": "patent US9662387B2", "about": "“Functional, cross-linked nanostructures for tandem optical imaging and therapy” (Mallinckrodt LLC, priority 2010, dated 2017)", "assay": "Core loading of phototherapeutic agent into micelles", "assay_type": "physicochemical", "protocol": "Core loading was achieved by addition of MP-3397 stock solution (in DMF) into aqueous micelle solution followed by removal of organic solvent through dialysis. Alternatively, MP-3397 stock solution incubated with block copolymer (both in DMF) underwent co-assembly upon addition of water followed by dialysis. In an example, poly(p-hydroxystyrene) core achieved maximum of 5 wt % core loading whereas polystyrene core achieved ca. 15 wt %.", "note": "At least one compound was matched to its structure with a doubt left.", "data": [{"smiles": "CCOC(=O)NN(C(=O)OCC)c1c2ccccc2cc2ccccc12", "note": "[MP-3397, diethyl 1-(anthracen-9-yl)hydrazine-1,2-dicarboxylate]", "values": [{"measurement": "maximum core loading", "setting": "poly(p-hydroxystyrene) core", "result": 5, "unit": "wt %"}, {"measurement": "core loading", "setting": "polystyrene core", "result": "ca. 15 wt %"}]}]}
